No constants are given. Whether binding was seen depends on the method and setting. Some results given as binding are weak or reduced against the parent protein; the word gives no strength.
Tests used:
[1] = biological target: T1, recombinant human iNOS oxygenase domain (human, UniProt P35228 82-505); test: SPR, iNOS immobilised, NOSIP 125 nM (FIG. 2(a))
T1 construct: It was cloned in pET22b, expressed in E. coli BL21 (DE3) and purified on Ni-NTA and by gel filtration; A His tag is implied but never described; In SPR it was immobilised on a GLC chip by amine coupling; also called riNOS; r iNOS

The chains behind the UniProt entries cited, without tags or fusion partners. Where a name states a change or a piece, a line headed by the entry shows the natural chain unless it says otherwise.
UniProt P35228: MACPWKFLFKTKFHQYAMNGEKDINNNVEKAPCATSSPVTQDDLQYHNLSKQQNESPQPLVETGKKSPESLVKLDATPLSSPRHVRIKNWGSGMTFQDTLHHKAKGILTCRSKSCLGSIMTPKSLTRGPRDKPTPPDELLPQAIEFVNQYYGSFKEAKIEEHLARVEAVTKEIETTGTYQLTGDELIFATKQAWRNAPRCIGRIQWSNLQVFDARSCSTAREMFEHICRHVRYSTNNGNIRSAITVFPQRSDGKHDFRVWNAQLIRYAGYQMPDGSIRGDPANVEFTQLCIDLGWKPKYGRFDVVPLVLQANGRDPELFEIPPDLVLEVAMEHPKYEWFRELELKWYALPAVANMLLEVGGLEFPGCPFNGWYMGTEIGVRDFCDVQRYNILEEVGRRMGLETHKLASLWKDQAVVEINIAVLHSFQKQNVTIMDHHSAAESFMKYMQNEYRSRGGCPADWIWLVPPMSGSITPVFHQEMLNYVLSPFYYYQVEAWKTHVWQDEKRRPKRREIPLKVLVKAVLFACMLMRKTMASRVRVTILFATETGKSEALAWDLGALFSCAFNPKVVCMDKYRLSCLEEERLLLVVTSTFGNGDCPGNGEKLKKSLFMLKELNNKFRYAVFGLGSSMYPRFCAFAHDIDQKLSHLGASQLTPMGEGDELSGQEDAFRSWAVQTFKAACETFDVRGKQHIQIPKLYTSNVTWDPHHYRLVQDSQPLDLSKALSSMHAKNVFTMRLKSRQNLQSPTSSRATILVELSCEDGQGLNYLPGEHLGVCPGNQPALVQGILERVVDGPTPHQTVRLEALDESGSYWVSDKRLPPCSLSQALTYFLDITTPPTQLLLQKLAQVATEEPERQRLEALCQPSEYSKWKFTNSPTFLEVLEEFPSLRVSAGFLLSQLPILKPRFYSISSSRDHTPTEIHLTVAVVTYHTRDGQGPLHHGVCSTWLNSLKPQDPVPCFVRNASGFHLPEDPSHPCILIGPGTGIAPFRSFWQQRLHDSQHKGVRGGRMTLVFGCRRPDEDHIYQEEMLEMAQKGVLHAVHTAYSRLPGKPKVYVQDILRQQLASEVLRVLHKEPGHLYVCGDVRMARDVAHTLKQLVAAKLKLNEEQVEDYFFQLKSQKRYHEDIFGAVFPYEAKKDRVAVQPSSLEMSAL

[2] = biological target: T1, recombinant human iNOS oxygenase domain; test: SPR (ProteOn XPR36), iNOS immobilised on a GLC chip, NOSIP 125 nM as analyte, no peptide [a]
[3] = biological target: T1, recombinant human iNOS oxygenase domain; test: SPR, iNOS immobilised, rNOSIP 250 nM as analyte, no small molecule
[4] = biological target: T1, recombinant human iNOS oxygenase domain; test: SPR, iNOS immobilised, NOSIP 1000 to 62.5 nM pre-incubated with 250 nM iNOS peptide PP2 [b]

binding [1]: binds | binding [2]: binds | binding [3]: binds | binding [4]: binds
B1: recombinant Nitric oxide synthase interacting protein (NOSIP) (other)
chain: HMTRHGKNCTAGAVYTYHEKKKDTAASGYGTQNIRLSRDAVKDFDCCCLSLQPCHDPVVTPDGYLYEREAILEYILHQKKEIARQMKAYEKQRGTRREEQKELQRAASQDHVRGFLEKESAIVSRPLNPFTAKALSGTSPDDVQPGPSVGPPSKDKDKVLPSFWIPSLTPEAKATKLEKPSRTVTCPMSGKPLRMSDLTPVHFTPLDSSVDRVGLITRSERYVCAVTRDSLSNATPCAVLRPSGAVVTLECVEKLIRKDMVDPVTGDKLTDRDIIVLQRGGTGFAGSGVKLQAEKSRPVMQALE
notes: It was synthesized by GenScript, cloned in pET22b, expressed in E. coli BL21 (DE3) and purified on Ni-NTA and by gel filtration; A His tag is implied but never described; also called rNOSIP; recombinant NOSIP

— patent US20240000786A1, “COMPOSITION FOR ENHANCING INTRA-CELLULAR NITRIC OXIDE GENERATION” (INSTITUTE OF LIFE SCIENCES, priority 2020, published 2024)
